Taken from: PubChem BioAssay AID1259254 (NCATS, 2017)
The deposit covers about 59,000 reagents; this is a part drawn at random. Of all reagents, about 1,550 (2.6%) got an active call. 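G2 share is only a proxy for re-replication; each gene was hit by three separate siRNAs, and active genes were retested.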 Reagents against one gene are numbered here. Further read-outs or replicates are left out here. No sequences are given here. Not given: the amount of reagent.

Test: 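Finding genes that stop cells copying their DNA twice in one cycle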 (primary screen)
System: human HCT116 colorectal cancer cells
Reagent: single siRNA against human genes
Timing: 3 days
Detection: 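Nuclei stained with Hoechst and imaged; cell-cycle phase assigned by DNA content; G2 share scaled per plate, non-targeting siRNA 0%, GMNN siRNA 100%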
Direction: G2 robust z-score and G2 cells, % of GMNN control: higher = more G2 cells, more excess DNA replication
Active means: 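An siRNA counts as active if its G2 robust z-score lies at least 5 MADs above the screen median; here such calls match roughly 38% of GMNN control or more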

| gene knocked down | siRNA no. | G2 robust z-score | G2 cells, % of GMNN control | activity call |
| --- | --- | --- | --- | --- |
| NLRX1 | 1 | -1.03 | -4.26 | inactive |
| NLRX1 | 2 | 0.456 | 6.18 | inactive |
| NLRX1 | 3 | -1.25 | -5.86 | inactive |
| USP31 | 1 | 4.91 | 37.5 | inactive |
| USP31 | 2 | -0.414 | 0.0515 | inactive |
| USP31 | 3 | 4.34 | 33.5 | inactive |
| ZNF836 | 1 | 0.0194 | 3.1 | inactive |
| ZNF836 | 2 | 0.0867 | 3.58 | inactive |
| ZNF836 | 3 | -0.376 | 0.324 | inactive |
| POFUT3 | 1 | 1.93 | 16.6 | inactive |
| POFUT3 | 2 | 0.0771 | 3.51 | inactive |
| POFUT3 | 3 | 1.24 | 11.7 | inactive |
| JMJD7-PLA2G4B | 1 | 2.52 | 20.7 | inactive |
| JMJD7-PLA2G4B | 2 | -1.39 | -6.84 | inactive |
| JMJD7-PLA2G4B | 3 | 0.295 | 5.04 | inactive |
| LOC646938 | 1 | 0.651 | 7.55 | inactive |
| LOC646938 | 2 | 0.245 | 4.69 | inactive |
| LOC646938 | 3 | 0.228 | 4.57 | inactive |
| CDKL1 | 1 | -0.14 | 1.98 | inactive |
| CDKL1 | 2 | 0.511 | 6.56 | inactive |
| CDKL1 | 3 | -0.145 | 1.95 | inactive |
| INTS5 | 1 | -0.457 | -0.249 | inactive |
| INTS5 | 2 | 0.547 | 6.82 | inactive |
| INTS5 | 3 | 0.285 | 4.98 | inactive |
| GPALPP1 | 1 | -0.322 | 0.702 | inactive |
| GPALPP1 | 2 | 0.389 | 5.7 | inactive |
| GPALPP1 | 3 | 1.86 | 16 | inactive |

10 neighbouring reagents from above, quoted:
| gene knocked down | siRNA no. | G2 robust z-score | G2 cells, % of GMNN control | activity call |
| --- | --- | --- | --- | --- |
| LOC646938 | 2 | 0.245 | 4.69 | inactive |
| LOC646938 | 3 | 0.228 | 4.57 | inactive |
| CDKL1 | 1 | -0.14 | 1.98 | inactive |
| CDKL1 | 2 | 0.511 | 6.56 | inactive |
| CDKL1 | 3 | -0.145 | 1.95 | inactive |
| INTS5 | 1 | -0.457 | -0.249 | inactive |
| INTS5 | 2 | 0.547 | 6.82 | inactive |
| INTS5 | 3 | 0.285 | 4.98 | inactive |
| GPALPP1 | 1 | -0.322 | 0.702 | inactive |
| GPALPP1 | 2 | 0.389 | 5.7 | inactive |

The results go on.
| gene knocked down | siRNA no. | G2 robust z-score | G2 cells, % of GMNN control | activity call |
| --- | --- | --- | --- | --- |
| APOBEC4 | 1 | 0.175 | 4.2 | inactive |
| APOBEC4 | 2 | -0.186 | 1.66 | inactive |
| APOBEC4 | 3 | -0.494 | -0.508 | inactive |
| MORN4 | 1 | 0.191 | 4.31 | inactive |
| MORN4 | 2 | 3.94 | 30.7 | inactive |
| MORN4 | 3 | -0.319 | 0.726 | inactive |
| GPER1 | 1 | -1.25 | -5.85 | inactive |
| GPER1 | 2 | 1.39 | 12.8 | inactive |
| GPER1 | 3 | 1.06 | 10.4 | inactive |
| OR2A12 | 1 | -0.268 | 1.08 | inactive |
| OR2A12 | 2 | -0.487 | -0.461 | inactive |
| OR2A12 | 3 | -0.473 | -0.36 | inactive |
| NUMA1 | 1 | 0.354 | 5.46 | inactive |
| NUMA1 | 2 | -0.45 | -0.197 | inactive |
| NUMA1 | 3 | 3.01 | 24.1 | inactive |
| LRIG1 | 1 | 4.5 | 34.6 | inactive |
| LRIG1 | 2 | 7.17 | 53.4 | active |
| LRIG1 | 3 | 0.849 | 8.94 | inactive |
| FKBP7 | 1 | 3.8 | 29.7 | inactive |
| FKBP7 | 2 | -0.681 | -1.82 | inactive |
| FKBP7 | 3 | -0.417 | 0.0367 | inactive |
| C1QTNF3 | 1 | -0.271 | 1.06 | inactive |
| C1QTNF3 | 2 | -0.537 | -0.812 | inactive |
| C1QTNF3 | 3 | -0.553 | -0.926 | inactive |
| CABIN1 | 1 | -0.535 | -0.793 | inactive |
| CABIN1 | 2 | -0.529 | -0.752 | inactive |
| CABIN1 | 3 | -0.644 | -1.56 | inactive |
| TTBK2 | 1 | 2.82 | 22.8 | inactive |
| TTBK2 | 2 | -1.18 | -5.34 | inactive |
| TTBK2 | 3 | -0.588 | -1.17 | inactive |
| PRELP | 1 | 1.41 | 12.9 | inactive |
| PRELP | 2 | -0.188 | 1.64 | inactive |
| PRELP | 3 | 1.25 | 11.8 | inactive |
| CAMK2D | 1 | -1.14 | -5.07 | inactive |
| CAMK2D | 2 | -0.584 | -1.14 | inactive |
| CAMK2D | 3 | -0.694 | -1.91 | inactive |
| DRC2 | 1 | -0.488 | -0.468 | inactive |
| DRC2 | 2 | -0.323 | 0.693 | inactive |
| DRC2 | 3 | 0.161 | 4.1 | inactive |
| AP3M1 | 1 | 0.468 | 6.26 | inactive |
| AP3M1 | 2 | -1.01 | -4.11 | inactive |
| AP3M1 | 3 | 0.464 | 6.23 | inactive |
